Laboratory results published in the supplement of paper PMC10849652.
This is one part of the list.

Protein sequences, listed by entry. Tags and fused reporters are not part of them. Lines headed by an entry give the natural chain unless they say otherwise; changes in a name come on top.
UniProt C9J7I0: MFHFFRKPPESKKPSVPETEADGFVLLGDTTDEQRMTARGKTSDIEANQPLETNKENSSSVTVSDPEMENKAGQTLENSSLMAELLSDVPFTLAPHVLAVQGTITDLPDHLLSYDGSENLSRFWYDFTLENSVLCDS
UniProt Q9BRU9: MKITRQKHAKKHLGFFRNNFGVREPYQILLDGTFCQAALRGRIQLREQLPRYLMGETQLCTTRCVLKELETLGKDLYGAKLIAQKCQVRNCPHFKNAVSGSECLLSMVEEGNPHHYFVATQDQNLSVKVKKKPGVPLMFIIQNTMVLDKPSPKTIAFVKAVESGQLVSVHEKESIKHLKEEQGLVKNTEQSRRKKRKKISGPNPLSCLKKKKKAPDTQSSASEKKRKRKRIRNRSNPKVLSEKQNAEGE
UniProt Q9H1J1: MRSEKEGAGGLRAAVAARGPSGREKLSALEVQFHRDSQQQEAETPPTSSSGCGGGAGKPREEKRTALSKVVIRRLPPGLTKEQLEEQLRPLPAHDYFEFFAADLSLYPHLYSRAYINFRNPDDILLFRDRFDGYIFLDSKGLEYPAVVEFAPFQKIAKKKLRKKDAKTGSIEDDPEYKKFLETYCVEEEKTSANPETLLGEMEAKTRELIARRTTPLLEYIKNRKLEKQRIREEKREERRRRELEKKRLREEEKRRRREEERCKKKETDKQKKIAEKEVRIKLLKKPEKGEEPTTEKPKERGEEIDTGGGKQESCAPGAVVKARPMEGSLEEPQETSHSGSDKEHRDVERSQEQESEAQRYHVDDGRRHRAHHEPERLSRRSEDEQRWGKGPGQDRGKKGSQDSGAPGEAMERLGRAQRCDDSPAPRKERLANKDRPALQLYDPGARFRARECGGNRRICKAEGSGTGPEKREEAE
UniProt Q86T82: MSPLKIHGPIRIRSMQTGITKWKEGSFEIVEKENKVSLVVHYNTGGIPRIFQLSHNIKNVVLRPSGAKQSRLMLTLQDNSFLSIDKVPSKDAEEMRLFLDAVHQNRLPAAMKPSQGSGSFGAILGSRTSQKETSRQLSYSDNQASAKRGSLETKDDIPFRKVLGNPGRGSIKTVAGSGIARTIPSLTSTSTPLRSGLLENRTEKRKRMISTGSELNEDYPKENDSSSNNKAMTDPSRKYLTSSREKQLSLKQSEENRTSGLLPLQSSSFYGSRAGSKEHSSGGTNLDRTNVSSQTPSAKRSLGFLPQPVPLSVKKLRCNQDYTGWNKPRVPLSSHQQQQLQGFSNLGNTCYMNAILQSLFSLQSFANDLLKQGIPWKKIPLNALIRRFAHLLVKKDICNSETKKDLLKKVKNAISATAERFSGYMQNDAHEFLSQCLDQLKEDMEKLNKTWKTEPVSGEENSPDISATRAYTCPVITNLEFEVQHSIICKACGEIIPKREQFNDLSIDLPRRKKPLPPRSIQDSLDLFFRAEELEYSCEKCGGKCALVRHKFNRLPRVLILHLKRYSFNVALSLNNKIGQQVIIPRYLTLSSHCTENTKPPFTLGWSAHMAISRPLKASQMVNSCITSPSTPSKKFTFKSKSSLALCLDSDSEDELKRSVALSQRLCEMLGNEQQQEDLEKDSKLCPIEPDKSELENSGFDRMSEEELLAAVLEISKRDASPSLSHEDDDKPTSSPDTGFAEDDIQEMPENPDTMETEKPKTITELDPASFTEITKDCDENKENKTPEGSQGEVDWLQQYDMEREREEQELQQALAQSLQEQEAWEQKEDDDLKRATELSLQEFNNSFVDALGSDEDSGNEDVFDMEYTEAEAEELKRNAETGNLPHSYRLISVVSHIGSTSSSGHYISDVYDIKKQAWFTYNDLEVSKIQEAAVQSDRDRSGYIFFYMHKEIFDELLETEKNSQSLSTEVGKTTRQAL
UniProt O15240: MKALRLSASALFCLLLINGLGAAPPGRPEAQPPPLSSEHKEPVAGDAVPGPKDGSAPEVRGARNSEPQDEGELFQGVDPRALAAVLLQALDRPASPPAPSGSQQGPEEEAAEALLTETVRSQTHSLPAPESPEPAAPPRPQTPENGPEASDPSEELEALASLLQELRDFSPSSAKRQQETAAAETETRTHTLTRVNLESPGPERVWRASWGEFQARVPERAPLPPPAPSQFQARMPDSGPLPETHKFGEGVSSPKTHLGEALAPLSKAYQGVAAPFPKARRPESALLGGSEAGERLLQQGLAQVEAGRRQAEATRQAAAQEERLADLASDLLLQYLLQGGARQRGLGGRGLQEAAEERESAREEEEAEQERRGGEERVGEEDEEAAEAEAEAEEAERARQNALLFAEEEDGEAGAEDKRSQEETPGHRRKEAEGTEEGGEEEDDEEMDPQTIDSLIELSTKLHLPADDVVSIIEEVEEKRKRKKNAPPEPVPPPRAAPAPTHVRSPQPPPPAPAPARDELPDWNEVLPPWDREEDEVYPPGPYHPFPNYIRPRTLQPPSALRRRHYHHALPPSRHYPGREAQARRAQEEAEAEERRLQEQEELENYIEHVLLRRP
UniProt Q8TEY7: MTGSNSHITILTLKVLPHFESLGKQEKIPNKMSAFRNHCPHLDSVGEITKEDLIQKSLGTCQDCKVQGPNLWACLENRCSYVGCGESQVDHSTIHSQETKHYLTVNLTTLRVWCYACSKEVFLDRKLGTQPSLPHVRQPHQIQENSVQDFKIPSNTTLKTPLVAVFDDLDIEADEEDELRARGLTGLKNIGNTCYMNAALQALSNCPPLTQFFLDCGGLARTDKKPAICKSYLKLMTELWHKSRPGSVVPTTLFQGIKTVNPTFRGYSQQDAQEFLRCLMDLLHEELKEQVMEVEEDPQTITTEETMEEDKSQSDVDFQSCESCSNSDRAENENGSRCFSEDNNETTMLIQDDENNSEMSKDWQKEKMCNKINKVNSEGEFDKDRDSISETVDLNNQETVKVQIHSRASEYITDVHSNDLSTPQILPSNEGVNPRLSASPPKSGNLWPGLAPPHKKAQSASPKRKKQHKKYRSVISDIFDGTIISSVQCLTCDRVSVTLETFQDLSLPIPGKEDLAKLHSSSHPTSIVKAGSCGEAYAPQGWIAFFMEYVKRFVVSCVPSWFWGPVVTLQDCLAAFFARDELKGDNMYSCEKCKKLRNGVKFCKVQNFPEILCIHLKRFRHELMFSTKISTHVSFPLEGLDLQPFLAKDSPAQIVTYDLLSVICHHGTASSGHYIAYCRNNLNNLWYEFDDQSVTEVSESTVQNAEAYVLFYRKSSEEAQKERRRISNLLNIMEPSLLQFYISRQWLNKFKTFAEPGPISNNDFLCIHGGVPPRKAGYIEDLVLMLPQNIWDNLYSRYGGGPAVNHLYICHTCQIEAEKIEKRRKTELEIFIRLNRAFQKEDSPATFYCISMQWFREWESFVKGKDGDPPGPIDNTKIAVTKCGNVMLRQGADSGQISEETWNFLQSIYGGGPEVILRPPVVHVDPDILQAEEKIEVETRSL
UniProt Q96PU4: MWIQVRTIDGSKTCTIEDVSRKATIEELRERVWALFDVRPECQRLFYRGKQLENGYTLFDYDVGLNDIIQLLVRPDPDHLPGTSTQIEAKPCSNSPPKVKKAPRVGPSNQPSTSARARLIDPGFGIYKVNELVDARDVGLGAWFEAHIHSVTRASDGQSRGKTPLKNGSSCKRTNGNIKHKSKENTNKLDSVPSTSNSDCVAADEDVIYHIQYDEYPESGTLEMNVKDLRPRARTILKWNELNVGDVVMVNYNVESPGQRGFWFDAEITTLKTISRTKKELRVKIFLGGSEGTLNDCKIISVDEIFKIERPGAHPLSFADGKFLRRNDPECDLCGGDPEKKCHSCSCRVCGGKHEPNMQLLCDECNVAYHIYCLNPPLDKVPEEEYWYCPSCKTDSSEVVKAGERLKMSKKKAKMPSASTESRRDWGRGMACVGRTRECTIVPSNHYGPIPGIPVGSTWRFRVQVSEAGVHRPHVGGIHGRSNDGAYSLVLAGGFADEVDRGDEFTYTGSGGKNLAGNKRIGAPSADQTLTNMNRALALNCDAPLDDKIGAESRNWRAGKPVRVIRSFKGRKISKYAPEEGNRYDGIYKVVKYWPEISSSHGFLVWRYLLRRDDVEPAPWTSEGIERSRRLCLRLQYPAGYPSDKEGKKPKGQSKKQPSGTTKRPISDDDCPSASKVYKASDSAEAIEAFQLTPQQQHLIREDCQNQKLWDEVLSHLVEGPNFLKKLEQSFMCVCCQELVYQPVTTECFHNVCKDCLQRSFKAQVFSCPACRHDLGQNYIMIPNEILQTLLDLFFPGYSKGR
UniProt Q9H9J4: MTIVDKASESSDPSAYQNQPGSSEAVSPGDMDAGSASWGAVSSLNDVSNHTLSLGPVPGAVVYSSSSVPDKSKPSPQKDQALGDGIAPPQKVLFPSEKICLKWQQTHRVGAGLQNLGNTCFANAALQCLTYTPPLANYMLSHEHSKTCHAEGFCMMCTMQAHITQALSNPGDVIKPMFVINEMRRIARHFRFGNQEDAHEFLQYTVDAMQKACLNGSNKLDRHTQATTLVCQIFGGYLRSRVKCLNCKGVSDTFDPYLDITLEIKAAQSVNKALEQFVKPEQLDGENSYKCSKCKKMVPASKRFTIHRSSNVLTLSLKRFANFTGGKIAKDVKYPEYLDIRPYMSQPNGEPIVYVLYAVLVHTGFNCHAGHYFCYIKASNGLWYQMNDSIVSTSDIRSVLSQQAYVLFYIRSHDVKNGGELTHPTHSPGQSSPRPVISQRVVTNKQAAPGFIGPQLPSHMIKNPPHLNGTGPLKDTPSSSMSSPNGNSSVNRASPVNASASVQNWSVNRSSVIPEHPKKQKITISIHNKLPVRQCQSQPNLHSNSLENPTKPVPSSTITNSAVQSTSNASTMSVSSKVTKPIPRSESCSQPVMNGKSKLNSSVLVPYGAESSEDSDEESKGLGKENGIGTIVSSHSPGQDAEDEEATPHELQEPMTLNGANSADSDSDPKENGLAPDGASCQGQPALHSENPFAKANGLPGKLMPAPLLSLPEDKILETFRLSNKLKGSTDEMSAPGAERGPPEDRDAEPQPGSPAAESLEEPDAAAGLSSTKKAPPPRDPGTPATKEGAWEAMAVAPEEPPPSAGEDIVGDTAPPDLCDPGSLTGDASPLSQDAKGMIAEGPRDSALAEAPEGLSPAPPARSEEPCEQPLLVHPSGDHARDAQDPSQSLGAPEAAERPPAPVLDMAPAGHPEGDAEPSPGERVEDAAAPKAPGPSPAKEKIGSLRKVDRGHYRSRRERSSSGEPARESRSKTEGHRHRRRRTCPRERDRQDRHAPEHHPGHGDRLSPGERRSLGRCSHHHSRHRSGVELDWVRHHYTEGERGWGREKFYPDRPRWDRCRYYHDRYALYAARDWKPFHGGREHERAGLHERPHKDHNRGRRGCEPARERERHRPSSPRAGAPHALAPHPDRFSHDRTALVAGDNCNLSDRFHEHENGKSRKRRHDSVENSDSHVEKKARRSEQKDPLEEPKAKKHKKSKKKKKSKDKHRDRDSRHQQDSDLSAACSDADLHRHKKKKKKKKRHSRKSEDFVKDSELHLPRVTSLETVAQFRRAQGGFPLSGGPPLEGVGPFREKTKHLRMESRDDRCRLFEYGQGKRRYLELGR
UniProt Q9Y4E8: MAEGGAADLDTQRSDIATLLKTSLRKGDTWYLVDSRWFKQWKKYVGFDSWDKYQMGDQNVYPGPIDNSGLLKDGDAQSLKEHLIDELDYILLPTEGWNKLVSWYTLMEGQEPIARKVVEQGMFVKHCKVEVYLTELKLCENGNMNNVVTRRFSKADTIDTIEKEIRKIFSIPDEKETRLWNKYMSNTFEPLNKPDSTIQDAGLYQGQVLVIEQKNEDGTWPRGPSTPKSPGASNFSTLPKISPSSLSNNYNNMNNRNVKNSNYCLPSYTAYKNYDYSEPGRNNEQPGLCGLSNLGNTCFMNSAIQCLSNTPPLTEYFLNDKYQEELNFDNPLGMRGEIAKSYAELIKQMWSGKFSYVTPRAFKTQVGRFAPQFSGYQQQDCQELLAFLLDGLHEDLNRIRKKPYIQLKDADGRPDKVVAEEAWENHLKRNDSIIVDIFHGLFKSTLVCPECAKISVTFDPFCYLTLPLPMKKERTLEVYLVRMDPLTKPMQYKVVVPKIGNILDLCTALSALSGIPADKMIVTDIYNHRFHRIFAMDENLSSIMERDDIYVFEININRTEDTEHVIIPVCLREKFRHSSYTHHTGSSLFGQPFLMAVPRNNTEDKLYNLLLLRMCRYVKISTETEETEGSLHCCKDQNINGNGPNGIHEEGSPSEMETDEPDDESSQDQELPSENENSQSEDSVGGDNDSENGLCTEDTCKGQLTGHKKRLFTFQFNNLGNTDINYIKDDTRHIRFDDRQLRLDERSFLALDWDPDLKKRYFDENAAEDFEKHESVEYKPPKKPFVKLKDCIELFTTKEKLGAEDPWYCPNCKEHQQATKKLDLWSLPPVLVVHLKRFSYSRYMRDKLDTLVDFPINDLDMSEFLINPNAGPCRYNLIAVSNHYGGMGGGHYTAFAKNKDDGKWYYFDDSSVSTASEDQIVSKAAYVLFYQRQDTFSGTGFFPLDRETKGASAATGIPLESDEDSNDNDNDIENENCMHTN

How the values were obtained:
Assay in all cases: log2 fold change, soluble protein after heating vs DMSO (PISA); higher = thermal stabilisation; K562 lysate, 10 uM; active = over 0.2 and 3.5 SD of the protein, either way, in both replicates (recomputed)
[1] = compound: CCn1cc(-c2ccnc3[nH]c(-c4cccc(CN(C)C)c4)cc23)c(-c2ccc(NC(=O)N(C)C)cc2)n1
Outline: (§1)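 Log-two fold change in thermal stability relative to solvent controls is reported from duplicates. For each sample, crude K562 extract from dounce-homogenised pellets in PBS pH 7.4 with 1 mM MgCl2, at 1 mg/mL protein, was treated with 10 μM compound for 30 min. Aliquots heated for 3 min across 48°C-58°C were pooled, brought to 0.5% NP-40 at 4°C and cleared at 21,000xg for 90 min. The supernatant was quantified by TMTpro 16plex LC-MS/MS with channel sums equalised.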

[2] = compound: CN1CCC(CNc2ccc3ncc(-c4cccc(OC(F)(F)F)c4)n3n2)CC1
Outline: as §1

sotrastaurin = compound: CN1CCN(c2nc(C3=C(c4c[nH]c5ccccc45)C(=O)NC3=O)c3ccccc3n2)CC1 [sotrastaurin]
Outline: as §1

alvocidib = compound: CN1CC[C@H](c2c(O)cc(O)c3c(=O)cc(-c4ccccc4Cl)oc23)[C@H](O)C1 [alvocidib]
Outline: as §1

barasertib = compound: CCN(CCCOc1ccc2c(Nc3cc(CC(=O)Nc4cccc(F)c4)[nH]n3)ncnc2c1)CCOP(=O)(O)O [barasertib]
Outline: as §1

[3] = compound: CC[C@@H]1C(=O)N(C)c2cnc(Nc3ccc(C(=O)NC4CCN(C)CC4)cc3OC)nc2N1C1CCCC1
Outline: as §1

[4] = compound: CCn1c(C(=O)N(C2CC2)C2CC2)cc2c3c(ncn3C)c(Nc3cc(C)n(C)n3)nc21
Outline: as §1

saracatinib = compound: CN1CCN(CCOc2cc(OC3CCOCC3)c3c(Nc4c(Cl)ccc5c4OCO5)ncnc3c2)CC1 [saracatinib]
Outline: as §1

Tubastatin A = compound: CN1CCc2c(c3ccccc3n2Cc2ccc(C(=O)NO)cc2)C1 [Tubastatin A]
Outline: as §1

[5] = compound: CNC(=O)C1=CC=CC=C1NC2=NC(=NC=C2Cl)NC3=C(C=C(C=C3)N4CCOCC4)OC
Outline: as §1

[6] = compound: CNc1nc(-c2ccc3c(N)n[nH]c3c2)cc(N2C[C@@H](C(=O)NC3CCCCC3)CC[C@H]2C)n1
Outline: as §1

encorafenib = compound: COC(=O)N[C@@H](C)CNc1nccc(-c2cn(C(C)C)nc2-c2cc(Cl)cc(NS(C)(=O)=O)c2F)n1 [encorafenib]
Outline: as §1

[7] = compound: COC(=O)[C@H](CCSC)NC(=O)C1=C(C=C(C=C1)NC[C@H](CS)N)C2=CC=CC=C2
Outline: as §1

[8] = compound: CCCS(=O)(=O)Nc1ccc(F)c(C(=O)c2c[nH]c3ncc(Cl)cc23)c1F
Outline: as §1

volasertib = compound: CC[C@@H]1C(=O)N(C)c2cnc(Nc3ccc(C(=O)N[C@H]4CC[C@H](N5CCN(CC6CC6)CC5)CC4)cc3OC)nc2N1C(C)C [volasertib]
Outline: as §1

alisertib = compound: COc1cc(Nc2ncc3c(n2)-c2ccc(Cl)cc2C(c2c(F)cccc2OC)=NC3)ccc1C(=O)O [alisertib]
Outline: as §1

[9] = compound: COc1cc2nc(-c3cc(F)ccc3O)nc(N[C@@H]3CNC[C@H]3C(C)(C)O)c2cc1OC
Outline: as §1

gefitinib = compound: COc1cc2ncnc(Nc3ccc(F)c(Cl)c3)c2cc1OCCCN1CCOCC1 [gefitinib]
Outline: as §1

vemurafenib = compound: CCCS(=O)(=O)Nc1ccc(F)c(C(=O)c2c[nH]c3ncc(-c4ccc(Cl)cc4)cc23)c1F [vemurafenib]
Outline: as §1

defactinib = compound: CNC(=O)c1ccc(Nc2ncc(C(F)(F)F)c(NCc3nccnc3N(C)S(C)(=O)=O)n2)cc1 [defactinib]
Outline: as §1

Measured: log2 fold change

VEGFA isoform 14 (UniProt P15692)
inactive: [1] 0.09 | [2] 0.05 | sotrastaurin -0.077 | alvocidib 0.015

USP20 (UniProt Q9Y2K6)
inactive: barasertib 0.067 | [3] -0.006 | [4] -0.1 | saracatinib -0.015 | sotrastaurin 0.119 | Tubastatin A 0.076 | [5] 0.041 | [6] -0.004 | encorafenib -0.055 | [7] -0.07

VEGFA (UniProt H0YBI8)
inactive: [1] -0.056 | [2] 0.126 | alvocidib -0.08

Two neighbouring records already listed, for reference:
USP20 (UniProt Q9Y2K6)
inactive: barasertib 0.067 | [3] -0.006 | [4] -0.1 | saracatinib -0.015 | sotrastaurin 0.119 | Tubastatin A 0.076 | [5] 0.041 | [6] -0.004 | encorafenib -0.055 | [7] -0.07

VEGFA (UniProt H0YBI8)
inactive: [1] -0.056 | [2] 0.126 | alvocidib -0.08

More records:

UMAD1 (UniProt C9J7I0)
inactive: [8] 0.049 | volasertib 0.038 | [4] 0.093 | [1] 0.092 | [2] -0.112 | saracatinib 0.006 | sotrastaurin -0.071 | alvocidib 0.112 | Tubastatin A -0.012 | [6] 0.104 | alisertib 0.112 | [9] -0.361 | gefitinib -0.332

USF3 (UniProt Q68DE3)
inactive: [8] 0.03 | barasertib 0.172 | [3] -0.096 | volasertib -0.067 | [5] -0.105 | encorafenib 0.079 | [7] -0.1 | [9] 0.047

VGLL4 isoform 4 (UniProt Q14135)
inactive: barasertib -0.118 | [4] -0.016 | [1] -0.017 | [2] 0.069 | saracatinib 0.019 | sotrastaurin -0.062 | alvocidib 0.001 | Tubastatin A 0.024 | [5] 0.124 | [6] 0.05 | alisertib 0.011 | gefitinib 0.028

UTP23 (UniProt Q9BRU9)
inactive: [8] 0.06 | barasertib 0.02 | volasertib 0.02 | [4] 0.084 | [1] -0.017 | [2] -0.015 | saracatinib 0.025 | sotrastaurin -0.012 | alvocidib -0.112 | Tubastatin A -0.065 | [5] 0.169 | [6] -0.018 | [9] 0.066

UNC119 (UniProt Q13432)
inactive: [4] -0.035 | saracatinib -0.09 | sotrastaurin -0.109 | Tubastatin A 0.109 | [5] -0.15 | [6] 0.127 | alisertib 0.047 | gefitinib 0.004

UQCRB (UniProt E5RHG9)
inactive: saracatinib 0.022 | [6] -0.039

VASN (UniProt Q6EMK4)
inactive: [3] 0.046 | [4] 0.023 | saracatinib 0.065 | Tubastatin A -0.161 | [5] -0.087 | [6] 0.096 | encorafenib 0.2 | [7] 0.02

VANGL2 (UniProt Q9ULK5)
inactive: [8] 0.059 | barasertib 0.033 | volasertib -0.007 | [4] -0.086 | [1] -0.128 | [2] -0.039 | saracatinib -0.097 | sotrastaurin -0.058 | alvocidib -0.055 | Tubastatin A -0.093 | [5] 0 | [6] 0.029 | [9] 0.065

UPF3A (UniProt Q9H1J1)
inactive: [8] 0.048 | barasertib 0.119 | [3] 0.194 | volasertib -0.024 | [4] 0.049 | [1] -0.087 | [2] 0.002 | sotrastaurin 0.067 | alvocidib 0.004 | Tubastatin A 0.116 | [5] 0.07 | encorafenib 0.019 | [7] -0.048 | [9] -0.041

USP7 (UniProt H3BND8)
inactive: [8] -0.063 | barasertib 0.177 | volasertib -0.006 | alisertib -0.154 | [9] 0.053 | gefitinib 0.089

USP37 (UniProt Q86T82)
inactive: vemurafenib -0.188 | [3] 0.09 | sotrastaurin -0.046 | defactinib -0.013 | encorafenib 0.013 | [7] 0.11

VGF (UniProt O15240)
inactive: vemurafenib 0.051 | [3] -0.051 | saracatinib 0.056 | [5] 0.341 | defactinib -0.084 | [6] 0.005 | encorafenib -0.065 | [7] -0.103

USP27X (UniProt A6NNY8)
inactive: [4] -0.176 | sotrastaurin -0.061 | Tubastatin A -0.037

USP33 (UniProt Q8TEY7)
inactive: [4] -0.016 | [1] -0.141 | [2] 0.13 | saracatinib 0.259 | sotrastaurin 0.26 | alvocidib 0.127 | Tubastatin A -0.202 | [6] 0.036 | alisertib -0.054 | gefitinib -0.154

UHRF2 (UniProt Q96PU4)
inactive: vemurafenib 0.095 | sotrastaurin -0.683 | defactinib -0.034

USP42 (UniProt Q9H9J4)
inactive: [8] -0.105 | barasertib -0.136 | [3] 0.095 | volasertib 0.072 | sotrastaurin -0.081 | encorafenib 0.08 | [7] 0.264 | alisertib -0.018 | [9] -0.023 | gefitinib -0.018

USP46 (UniProt P62068)
inactive: [8] 0.009 | barasertib 0.051 | volasertib 0.145 | sotrastaurin -0.013 | [9] -0.051

USP15 isoform 3 (UniProt Q9Y4E8)
inactive: [8] -0.005 | volasertib 0.041 | saracatinib 0.036 | sotrastaurin -0.01 | [6] 0.043 | [9] 0.044
